Experimental data reported in the supplement of paper PMC8728848.
The list shows a part of the results.

Tests used:
Assay in all cases: glycan array binding signal (z-score within array); higher = stronger binding
Settings in all cases: glycan notation: IUPAC condensed, linker removed
[1] = biological target: GlcNAc(b1-6)Gal(b1-4)GlcNAc
Outline: (§1)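 The Consortium for Functional Glycomics database supplied 3228 glycan arrays, of which those lacking an available protein sequence were dropped. The binding signal, a within-array Z-score, was averaged across arrays of the same protein sequence and across linkers. Negative scores can be read as non-binding.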

GlcNAc(b1-6)GalNAc = biological target: GlcNAc(b1-6)GalNAc
Outline: as §1

GlcNAc3Prop(b1-4)GlcNAc = biological target: GlcNAc3Prop(b1-4)GlcNAc
Outline: as §1

[2] = biological target: GlcNAc6S(b1-3)Gal(b1-4)GlcNAc
Outline: as §1

Kdn(a2-3)Gal(b1-3)GalNAc = biological target: Kdn(a2-3)Gal(b1-3)GalNAc
Outline: as §1

Kdn(a2-3)Gal(b1-3)GlcNAc = biological target: Kdn(a2-3)Gal(b1-3)GlcNAc
Outline: as §1

Kdn(a2-3)Gal(b1-4)Glc = biological target: Kdn(a2-3)Gal(b1-4)Glc
Outline: as §1

Kdn(a2-3)Gal(b1-4)GlcNAc = biological target: Kdn(a2-3)Gal(b1-4)GlcNAc
Outline: as §1

[3] = biological target: Kdn(a2-3)Gal(b1-4)[Fuc(a1-3)]GlcNAc
Outline: as §1

Kdn(a2-6)Gal(b1-4)GlcNAc = biological target: Kdn(a2-6)Gal(b1-4)GlcNAc
Outline: as §1

[4] = biological target: Man(a1-2)Man(a1-2)Man(a1-3)Man
Outline: as §1

[5] = biological target: Man(a1-2)Man(a1-2)Man(a1-6)[Man(a1-3)]Man
Outline: as §1

Man(a1-2)Man(a1-3)Man = biological target: Man(a1-2)Man(a1-3)Man
Outline: as §1

[6] = biological target: Man(a1-2)Man(a1-3)[Man(a1-2)Man(a1-6)]Man
Outline: as §1

[7] = biological target: Man(a1-2)Man(a1-3)[Man(a1-2)Man(a1-6)]Man(a1-6)[Man(a1-2)Man(a1-2)Man(a1-3)]Man
Outline: as §1

[8] = biological target: Man(a1-2)Man(a1-3)[Man(a1-2)Man(a1-6)]Man(a1-6)[Man(a1-2)Man(a1-2)Man(a1-3)]Man(b1-4)GlcNAc(b1-4)GlcNAc
Outline: as §1

[9] = biological target: Man(a1-2)Man(a1-3)[Man(a1-6)]Man(a1-6)[Man(a1-2)Man(a1-3)]Man(b1-4)GlcNAc(b1-4)GlcNAc
Outline: as §1

[10] = biological target: Man(a1-2)Man(a1-6)[Man(a1-3)]Man(a1-6)[Man(a1-2)Man(a1-2)Man(a1-3)]Man
Outline: as §1

[11] = biological target: Man(a1-2)Man(a1-6)[Man(a1-3)]Man(a1-6)[Man(a1-2)Man(a1-2)Man(a1-3)]Man(b1-4)GlcNAc(b1-4)GlcNAc
Outline: as §1

Man(a1-3)[Man(a1-6)]Man = biological target: Man(a1-3)[Man(a1-6)]Man
Outline: as §1

[12] = biological target: Man(a1-3)[Man(a1-6)]Man(a1-6)[Man(a1-2)Man(a1-3)]Man(b1-4)GlcNAc(b1-4)GlcNAc
Outline: as §1

[13] = biological target: Man(a1-3)[Man(a1-6)]Man(a1-6)[Man(a1-3)]Man
Outline: as §1

[14] = biological target: Man(a1-3)[Man(a1-6)]Man(a1-6)[Man(a1-3)]Man(b1-4)GlcNAc(b1-4)GlcNAc
Outline: as §1

[15] = biological target: Man(a1-3)[Man(a1-6)]Man(b1-4)GlcNAc(b1-4)GlcNAc
Outline: as §1

Man(a1-6)Man = biological target: Man(a1-6)Man
Outline: as §1

Man(b1-4)GlcNAc = biological target: Man(b1-4)GlcNAc
Outline: as §1

Neu5Ac(a2-3)Gal = biological target: Neu5Ac(a2-3)Gal
Outline: as §1

[16] = biological target: Neu5Ac(a2-3)Gal(b1-3)GalNAc
Outline: as §1

[17] = biological target: Neu5Ac(a2-3)Gal(b1-3)GalNAc(b1-3)Gal(a1-4)Gal(b1-4)Glc
Outline: as §1

[18] = biological target: Neu5Ac(a2-3)Gal(b1-3)GalNAc(b1-4)[Neu5Ac(a2-3)]Gal(b1-4)Glc
Outline: as §1

[19] = biological target: Neu5Ac(a2-3)Gal(b1-3)GalNAc(b1-4)[Neu5Ac(a2-8)Neu5Ac(a2-3)]Gal(b1-4)Glc
Outline: as §1

[20] = biological target: Neu5Ac(a2-3)Gal(b1-3)GalNAc6S
Outline: as §1

[21] = biological target: Neu5Ac(a2-3)Gal(b1-3)GlcNAc
Outline: as §1

[22] = biological target: Neu5Ac(a2-3)Gal(b1-3)GlcNAc(b1-2)Man(a1-3)[Neu5Ac(a2-3)Gal(b1-3)GlcNAc(b1-2)Man(a1-6)]Man(b1-4)GlcNAc(b1-4)GlcNAc
Outline: as §1

[23] = biological target: Neu5Ac(a2-3)Gal(b1-3)GlcNAc(b1-3)Gal(b1-3)GlcNAc
Outline: as §1

[24] = biological target: Neu5Ac(a2-3)Gal(b1-3)GlcNAc(b1-3)Gal(b1-4)GlcNAc
Outline: as §1

[25] = biological target: Neu5Ac(a2-3)Gal(b1-3)GlcNAc(b1-3)GalNAc
Outline: as §1

[26] = biological target: Neu5Ac(a2-3)Gal(b1-3)GlcNAc6S
Outline: as §1

[27] = biological target: Neu5Ac(a2-3)Gal(b1-3)[Fuc(a1-4)]GlcNAc
Outline: as §1

[28] = biological target: Neu5Ac(a2-3)Gal(b1-3)[Fuc(a1-4)]GlcNAc(b1-3)Gal(b1-3)[Fuc(a1-4)]GlcNAc
Outline: as §1

[29] = biological target: Neu5Ac(a2-3)Gal(b1-3)[Fuc(a1-4)]GlcNAc(b1-3)Gal(b1-4)[Fuc(a1-3)]GlcNAc
Outline: as §1

[30] = biological target: Neu5Ac(a2-3)Gal(b1-3)[Neu5Ac(a2-3)Gal(b1-4)]GlcNAc
Outline: as §1

[31] = biological target: Neu5Ac(a2-3)Gal(b1-3)[Neu5Ac(a2-6)]GalNAc
Outline: as §1

Neu5Ac(a2-3)Gal(b1-4)Glc = biological target: Neu5Ac(a2-3)Gal(b1-4)Glc
Outline: as §1

[32] = biological target: Neu5Ac(a2-3)Gal(b1-4)GlcNAc
Outline: as §1

B1: rPitB (Streptococcus pneumoniae), A0A0I7U739 (protein)
chain: MSEIEIINAKKIYHDVPVIENLNITIPKGSLFTLLGASGCGKTTLLRMIAGFNSIKDGEFYFDDTKINNMEPSKRNIGLVFQNYAIFPHLTVRDNVAFGLMQKKVPKEELIQQTNKYLELMQIAQYAD
B1 was tested, and the “glycan array binding signal (z-score)” value [1] was -0.039, the “glycan array binding signal (z-score)” value (GlcNAc(b1-6)GalNAc) was -0.376 and the “glycan array binding signal (z-score)” value (GlcNAc3Prop(b1-4)GlcNAc) was -0.316. For the same binder, the “glycan array binding signal (z-score)” value [2] was 1.15, the “glycan array binding signal (z-score)” value (Kdn(a2-3)Gal(b1-3)GalNAc) was -0.455 and the “glycan array binding signal (z-score)” value (Kdn(a2-3)Gal(b1-3)GlcNAc) was 0.362. The “glycan array binding signal (z-score)” value (Kdn(a2-3)Gal(b1-4)Glc) was -0.94, the “glycan array binding signal (z-score)” value (Kdn(a2-3)Gal(b1-4)GlcNAc) was 0.167 and the “glycan array binding signal (z-score)” value [3] was -0.562. For the same binder, the “glycan array binding signal (z-score)” value (Kdn(a2-6)Gal(b1-4)GlcNAc) was -0.512, the “glycan array binding signal (z-score)” value [4] was 0.159 and the “glycan array binding signal (z-score)” value [5] was -0.585. The “glycan array binding signal (z-score)” value (Man(a1-2)Man(a1-3)Man) was 0.348, the “glycan array binding signal (z-score)” value [6] was -0.507 and the “glycan array binding signal (z-score)” value [7] was 0.18. For the same binder, the “glycan array binding signal (z-score)” value [8] was -0.397, the “glycan array binding signal (z-score)” value [9] was -0.541 and the “glycan array binding signal (z-score)” value [10] was -0.16. The “glycan array binding signal (z-score)” value [11] was -0.133, the “glycan array binding signal (z-score)” value (Man(a1-3)[Man(a1-6)]Man) was 0.276 and the “glycan array binding signal (z-score)” value [12] was -1.04. The “glycan array binding signal (z-score)” value [13] was 0.005, the “glycan array binding signal (z-score)” value [14] was -0.497 and the “glycan array binding signal (z-score)” value [15] was -0.391. For the same binder, the “glycan array binding signal (z-score)” value (Man(a1-6)Man) was -1.19, the “glycan array binding signal (z-score)” value (Man(b1-4)GlcNAc) was -0.12 and the “glycan array binding signal (z-score)” value (Neu5Ac(a2-3)Gal) was -0.05. For the same binder, the “glycan array binding signal (z-score)” value [16] was 0.31, the “glycan array binding signal (z-score)” value [17] was -0.604 and the “glycan array binding signal (z-score)” value [18] was 0.43. For the same binder, the “glycan array binding signal (z-score)” value [19] was 0.622, the “glycan array binding signal (z-score)” value [20] was 0.486 and the “glycan array binding signal (z-score)” value [21] was 0.208. For the same binder, the “glycan array binding signal (z-score)” value [22] was -1.11, the “glycan array binding signal (z-score)” value [23] was -0.301 and the “glycan array binding signal (z-score)” value [24] was 0.522. For the same binder, the “glycan array binding signal (z-score)” value [25] was -0.649, the “glycan array binding signal (z-score)” value [26] was -1.12 and the “glycan array binding signal (z-score)” value [27] was -0.119. For the same binder, the “glycan array binding signal (z-score)” value [28] was 2.33, the “glycan array binding signal (z-score)” value [29] was 0.501 and the “glycan array binding signal (z-score)” value [30] was -0.305. The “glycan array binding signal (z-score)” value [31] was -0.12, the “glycan array binding signal (z-score)” value (Neu5Ac(a2-3)Gal(b1-4)Glc) was -0.216 and the “glycan array binding signal (z-score)” value [32] was -0.6.
